Measurements from article PMC4010427, “Structural and Functional Similarity of Amphibian Constitutive Androstane Receptor with Mammalian Pregnane X Receptor” (PLoS ONE, 2014).
Results are given in words; binding and its absence hold for the method and conditions named. In cells and extracts the contact can be indirect. Some results given as binding are weak or reduced against the parent protein; the word gives no strength.

The chains behind the UniProt entries cited, without tags or fusion partners. Residues count along the entry.
UniProt Q15788, residues 583-783: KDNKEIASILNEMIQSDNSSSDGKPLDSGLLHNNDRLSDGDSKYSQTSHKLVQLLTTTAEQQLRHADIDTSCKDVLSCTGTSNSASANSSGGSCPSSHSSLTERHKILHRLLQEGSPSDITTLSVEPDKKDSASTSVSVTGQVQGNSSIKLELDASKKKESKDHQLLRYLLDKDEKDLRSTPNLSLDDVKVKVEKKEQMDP

Tests used:
[1] = target: GST-tagged SRC-1 RID protein (recombinant human SRC-1, amino acids 583–783) (UniProt Q15788); experiment: pull-down; CARLA as above, in the presence of the indicated concentrations of pregnanedione (dose response); only the target purified
[2] = target: GST-tagged SRC-1 RID protein (recombinant human SRC-1, amino acids 583–783) (UniProt Q15788); experiment: pull-down; CARLA: 3–5 µg GST-tagged SRC-1 RID on glutathione-sepharose 4B beads, 2 µl 35S-labelled in vitro translated CAR protein, NETN (100 mM NaCl, 1 mM EDTA, 1 mM DTT, 20 mM Tris-Cl pH 8.0, 0.5% Nonidet P40) with 0.5% skimmed milk powder, over night at 4°C; 1% solvent DMSO only (no ligand); only the target purified

B1: full-length human CAR1 protein, 35S-labelled (protein, UniProt Q14994-2 1-348)
chain: MASREDELRNCVVCGDQATGYHFNALTCEGCKGFFRRTVSKSIGPTCPFAGSCEVSKTQRRHCPACRLQKCLDAGMRKDMILSAEALALRRAKQAQRRAQQTPVQLSKEQEELIRTLLGAHTRHMGTMFEQFVQFRPPAHLFIHHQPLPTLAPVLPLVTHFADINTFMVLQVIKFTKDLPVFRSLPIEDQISLLKGAAVEICHIVLNTTFCLQTQNFLCGPLRYTIEDGARVGFQVEFLELLFHFHGTLRKLQLQEPEYVLLAAMALFSPDRPGVTQRDEIDQLQEEMALTLQSYIKGQQRRPRDRFLYAKLLGLLAELRSINEAYGYQIQHIQGLSAMMPLLQEICS
modifications: 35S-methionine labelled
[1]
  binding: binds
[2]
  binding: binds
